Experimental data: US20170042883A1, “Methods for Detecting and Treating Rhinovirus Infection” (The Procter & Gamble Company, priority 2011, published 2017)
For at least one compound, name, drawing or mass did not settle the structure. Some entries repeat one wording, which the source may state once for all of them.

System: rhinovirus infection-induced inflammatory markers (IL-6, IP-10, and RANTES) in BEAS-2B
Assay: rhinovirus infection-induced inflammatory markers in RV-16 infected BEAS-2B cells
Assay type: cell-based, human
Details: result in words
Protocol: The effect of various identified compounds on rhinovirus infection-induced inflammatory markers (IL-6, IP-10, and RANTES) in the human bronchial epithelia cell line, BEAS-2B, was evaluated. Kaempferol, luteolin, quercetin, scutellarein, all-transretinoic acid, 3-hydroxyflavone, fustin, 3-methylquercetin, fisetin, apigenin, oxymetazoline HCl, chrysin, naringenin, pyrrolidinedithiocarbamate ammonium, 7-hydroxyflavone, myricetin, diosmetin, 4′,7-dihydroxyflavone, or eriodictyol was added to cell culture media at various doses at the time of RV-16 infection of BEAS-2B cells. IL-6, IP-10 and RANTES protein levels were measured three days post-infection. Cytotoxicity of the compounds was determined by the uptake of vital dye Rhinovirus infected BEAS-2B cells not exposed to the compounds served as a positive control, achieving maximum cytokine production. BEAS-2B cells not exposed to rhinovirus or the compounds served as a negative control. […] The study was repeated for a subset of compounds, and ibuprofen (20 µM) was added to the cell media with the compounds at the time of infection. IL-6, IP-10 and RANTES protein levels were measured two days post-infection.

Structure (SMILES): O=c1cc(-c2ccc(O)cc2)oc2cc(O)c(O)c(O)c12 [scutellarein]
- anti-inflammatory effects in the rhinovirus infection mediated inflammation model: anti-inflammatory effects
